Experimental data taken from patent US20180333399A1, “METHOD OF IMPROVING LIVER FUNCTION” (NAIA METABOLIC, INC., priority 2012, published 2018).

Assay: Body weight of db/db mice, 9 days oral gavage
Type: in vivo

Structure (SMILES): CC(=O)/N=c1/sc(S(N)(=O)=O)nn1C [methazolamide]
- Change in Body Weight, Day 9-Day 0 (50 mg/kg/day oral gavage for 9 days, p < 0.05 vs vehicle): -2.6 ± 1.4 g
- Body Weight, Day 9 (Day 9, 50 mg/kg/day oral gavage): 39.0 ± 4.4 g
- change in body weight over the 9 day dosing period (in words) (db/db mice, 50 mg/kg/day, vehicle-treated animals gained weight): lost weight
